Part of at least one peptide drawing is inferred or uncertain, most often the ends. Where no end group is shown, it is not given here.
Experiments:
Assay type in all cases: in vivo, mouse
[1] = test system: outer nuclear layer (ONL), rd10 mice; test: Histology, ONL thickness, rd10 mice
[2] = test system: photoreceptor (PR) cells, rd10 mice; test: PSVue detection of PR cell death, fluorescence fundoscopy, rd10 mice (daily eyedrops P15-P20); conditions: for protection against PR cell death (peptide comparison): 1 mg/ml eyedrops daily P15-P20, fundoscopy P21, relative to HBSS
[3] = test system: photoreceptor (PR) cells, rd10/Serpinf1 null mice; test: PSVue detection of PR cell death, fluorescence fundoscopy, rd10/Serpinf1 null mice (daily eyedrops P15-P20); conditions: for protection against PR cell death (peptide comparison): 1 mg/ml eyedrops daily P15-P20, fundoscopy P21, relative to HBSS
BAX2 = test: Immunofluorescence of pro-apoptotic BAX2 in retinal cross sections; conditions: daily eyedrops, vs without the peptide
[4] = test system: outer nuclear layer (ONL), rd10/Serpinf1 null mice; test: Histology, ONL thickness, rd10/Serpinf1 null mice; conditions: daily eyedrops P15-P20, vs without the peptide
[5] = test system: photoreceptor (PR) cells, rd10/Serpinf1 null mice; test: PSVue detection of PR cell death, rd10/Serpinf1 null mice (eyedrops every other day P15-P24); conditions: P25
BCL2 = test: Immunofluorescence of anti-apoptotic BCL2 in retinal cross sections; conditions: daily eyedrops, vs without the peptide
[6] = test system: photoreceptor (PR) cells, rd10 mice; test: PSVue detection of PR cell death, rd10 mice (eyedrops every other day P15-P24); conditions: P25
[7] = eyedrops 5 μl of 1 mg/ml in HBSS daily P15-P20, P21, vs HBSS

Row | Sequence | outer nuclear layer (ONL) thickness ([1]; daily eyedrops P15-P20, vs without the peptide) | outer nuclear layer (ONL) thickness ([1]; eyedrops every other day P15-P24, P25, vs without the peptide) | efficacy relative to wild type 17mer in protecting against PR cell death ([2]; 1 mg/ml eyedrops daily P15-P20) | protection against PR cell death (peptide comparison) [2] | retinal cell death (PSVue assay) [2, 7] | efficacy relative to wild type 17mer in protecting against PR cell death ([3]; 1 mg/ml eyedrops daily P15-P20) | protection against PR cell death (peptide comparison) [3] | retinal cell death (PSVue assay) [3, 7] | pro-apoptotic BAX2 (pro-death marker) (BAX2; rd10/Serpinf1 null) | pro-apoptotic BAX2 (pro-death marker) (BAX2; rd10) | outer nuclear layer (ONL) thickness [4] | retinal cell death (PSVue assay) [5] | anti-apoptotic BCL2 (pro-survival marker) (BCL2; rd10/Serpinf1 null) | anti-apoptotic BCL2 (pro-survival marker) (BCL2; rd10) | retinal cell death (PSVue assay) [6]
1 | QRTESIIARALYYDLIS [17mer[H105A]] | thicker | thicker | more effective than wild type 17mer | protected against PR cell death | decreasing retinal cell death | more effective than wild type 17mer | protected against PR cell death | decreasing retinal cell death | decrease | decrease | thicker | decreasing retinal cell death | increase | increase | decreasing retinal cell death
2 | QRTESIIHRALYYDLIS [wild type 17mer] |  |  |  | protected against PR cell death |  |  | protected against PR cell death |  |  |  |  |  |  |  | 
3 | SLGAEQRTESIIHRALYYDLISSPDIHGT [29mer] |  |  |  | not efficacious |  |  | not efficacious |  |  |  |  |  |  |  | 
4 | SLGAEQRTESIIARALYYDLISSPDIHGT [29mer[H105A]] |  |  |  | not efficacious |  |  | not efficacious |  |  |  |  |  |  |  | 

From patent publication US20260374815A1, “PIGMENT EPITHELIUM-DERIVED FACTOR PEPTIDES AND USE FOR TREATING RETINAL DEGENERATION” (priority 2022, published 2026)
